# Experimental data taken from the supplement of paper PMC10849652.
# Chains of the proteins cited; added tags and fusions are not shown. Lines headed by an entry give the natural chain unless they say otherwise; changes in a name come on top.
# UniProt P62699: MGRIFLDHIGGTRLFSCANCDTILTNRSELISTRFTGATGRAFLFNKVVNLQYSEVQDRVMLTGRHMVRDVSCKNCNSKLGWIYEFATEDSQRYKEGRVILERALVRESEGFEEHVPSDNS
# UniProt O75152: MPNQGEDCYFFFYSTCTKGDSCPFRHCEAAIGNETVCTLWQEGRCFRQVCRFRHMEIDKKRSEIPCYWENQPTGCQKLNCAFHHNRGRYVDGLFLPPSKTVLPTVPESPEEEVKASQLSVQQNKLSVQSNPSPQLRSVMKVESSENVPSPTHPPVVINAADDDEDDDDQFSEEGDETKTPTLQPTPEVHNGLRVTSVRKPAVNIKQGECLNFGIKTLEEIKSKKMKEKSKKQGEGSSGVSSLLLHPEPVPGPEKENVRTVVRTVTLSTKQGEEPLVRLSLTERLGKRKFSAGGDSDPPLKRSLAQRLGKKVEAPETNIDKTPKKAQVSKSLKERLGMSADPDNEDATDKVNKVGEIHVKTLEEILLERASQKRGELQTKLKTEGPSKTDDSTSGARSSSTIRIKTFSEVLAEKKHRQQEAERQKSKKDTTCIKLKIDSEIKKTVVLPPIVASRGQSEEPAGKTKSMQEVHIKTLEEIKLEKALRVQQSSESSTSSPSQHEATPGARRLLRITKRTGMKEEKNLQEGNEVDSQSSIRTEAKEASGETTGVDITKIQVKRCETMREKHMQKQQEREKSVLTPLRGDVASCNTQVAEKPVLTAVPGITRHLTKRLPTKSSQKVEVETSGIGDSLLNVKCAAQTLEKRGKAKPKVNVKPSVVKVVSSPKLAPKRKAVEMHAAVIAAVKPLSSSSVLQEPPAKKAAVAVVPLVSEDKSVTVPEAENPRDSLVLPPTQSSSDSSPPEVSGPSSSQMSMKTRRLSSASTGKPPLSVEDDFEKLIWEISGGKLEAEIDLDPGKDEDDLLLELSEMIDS
# UniProt Q8WW38: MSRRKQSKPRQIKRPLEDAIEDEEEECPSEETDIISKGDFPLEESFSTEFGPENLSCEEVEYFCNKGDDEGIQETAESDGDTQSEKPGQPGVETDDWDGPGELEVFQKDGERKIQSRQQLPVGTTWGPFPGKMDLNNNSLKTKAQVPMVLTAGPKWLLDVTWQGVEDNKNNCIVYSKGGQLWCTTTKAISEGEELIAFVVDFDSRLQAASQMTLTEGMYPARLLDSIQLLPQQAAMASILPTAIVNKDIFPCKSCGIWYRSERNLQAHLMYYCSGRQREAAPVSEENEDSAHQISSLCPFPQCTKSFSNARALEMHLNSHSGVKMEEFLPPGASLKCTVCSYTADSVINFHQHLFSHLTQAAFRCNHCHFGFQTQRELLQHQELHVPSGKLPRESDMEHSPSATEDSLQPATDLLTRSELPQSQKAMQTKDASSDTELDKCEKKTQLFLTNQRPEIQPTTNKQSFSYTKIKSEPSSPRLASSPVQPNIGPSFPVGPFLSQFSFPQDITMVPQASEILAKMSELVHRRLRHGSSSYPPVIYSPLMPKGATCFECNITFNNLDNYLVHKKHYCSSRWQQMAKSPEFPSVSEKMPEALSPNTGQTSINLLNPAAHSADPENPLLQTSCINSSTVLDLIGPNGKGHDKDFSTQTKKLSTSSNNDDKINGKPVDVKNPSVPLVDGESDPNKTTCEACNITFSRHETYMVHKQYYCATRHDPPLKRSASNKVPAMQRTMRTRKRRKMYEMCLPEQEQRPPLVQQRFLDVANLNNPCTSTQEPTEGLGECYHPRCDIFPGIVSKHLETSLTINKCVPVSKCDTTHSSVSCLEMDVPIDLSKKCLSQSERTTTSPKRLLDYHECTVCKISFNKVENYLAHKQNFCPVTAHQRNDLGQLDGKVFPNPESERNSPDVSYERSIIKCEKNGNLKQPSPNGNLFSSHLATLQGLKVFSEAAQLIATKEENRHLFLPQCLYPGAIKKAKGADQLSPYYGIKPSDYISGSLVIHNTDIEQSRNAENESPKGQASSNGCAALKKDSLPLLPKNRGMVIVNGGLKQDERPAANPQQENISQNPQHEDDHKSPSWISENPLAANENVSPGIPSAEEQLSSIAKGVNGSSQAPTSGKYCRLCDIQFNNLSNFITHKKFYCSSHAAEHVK
# UniProt O15156: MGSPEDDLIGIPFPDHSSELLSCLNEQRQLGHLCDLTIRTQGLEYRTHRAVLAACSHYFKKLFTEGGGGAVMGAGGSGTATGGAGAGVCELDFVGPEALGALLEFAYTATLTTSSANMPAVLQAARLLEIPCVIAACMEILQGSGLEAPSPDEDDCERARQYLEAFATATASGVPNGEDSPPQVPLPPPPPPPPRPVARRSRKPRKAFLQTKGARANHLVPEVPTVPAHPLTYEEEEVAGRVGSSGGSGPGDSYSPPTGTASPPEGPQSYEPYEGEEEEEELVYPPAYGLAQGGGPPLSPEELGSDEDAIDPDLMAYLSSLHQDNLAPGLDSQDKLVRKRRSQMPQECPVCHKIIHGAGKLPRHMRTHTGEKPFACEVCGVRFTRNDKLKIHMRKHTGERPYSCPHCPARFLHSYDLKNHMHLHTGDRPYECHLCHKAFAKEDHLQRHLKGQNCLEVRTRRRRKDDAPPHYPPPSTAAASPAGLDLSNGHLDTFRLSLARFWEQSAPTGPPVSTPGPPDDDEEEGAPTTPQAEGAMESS
# UniProt P13010: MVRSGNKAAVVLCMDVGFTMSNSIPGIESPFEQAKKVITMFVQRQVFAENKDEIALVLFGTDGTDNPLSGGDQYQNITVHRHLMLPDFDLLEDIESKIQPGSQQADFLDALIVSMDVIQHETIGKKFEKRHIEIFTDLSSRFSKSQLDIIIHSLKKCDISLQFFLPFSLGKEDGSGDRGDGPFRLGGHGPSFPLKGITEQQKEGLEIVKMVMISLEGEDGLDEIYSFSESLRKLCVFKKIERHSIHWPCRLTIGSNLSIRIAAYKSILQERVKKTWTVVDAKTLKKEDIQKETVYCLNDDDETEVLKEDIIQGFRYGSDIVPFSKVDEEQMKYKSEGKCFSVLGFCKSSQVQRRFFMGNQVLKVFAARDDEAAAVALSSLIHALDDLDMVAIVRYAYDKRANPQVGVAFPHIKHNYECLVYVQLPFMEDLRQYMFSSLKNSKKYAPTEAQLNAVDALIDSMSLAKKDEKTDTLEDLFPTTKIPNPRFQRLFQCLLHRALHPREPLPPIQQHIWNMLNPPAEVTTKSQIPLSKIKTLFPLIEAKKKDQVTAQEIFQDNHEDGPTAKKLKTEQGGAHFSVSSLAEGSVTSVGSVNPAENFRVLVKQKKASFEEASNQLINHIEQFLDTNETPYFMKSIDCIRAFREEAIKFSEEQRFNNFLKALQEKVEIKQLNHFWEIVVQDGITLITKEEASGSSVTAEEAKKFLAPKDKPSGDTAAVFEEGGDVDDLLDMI
# UniProt P49750: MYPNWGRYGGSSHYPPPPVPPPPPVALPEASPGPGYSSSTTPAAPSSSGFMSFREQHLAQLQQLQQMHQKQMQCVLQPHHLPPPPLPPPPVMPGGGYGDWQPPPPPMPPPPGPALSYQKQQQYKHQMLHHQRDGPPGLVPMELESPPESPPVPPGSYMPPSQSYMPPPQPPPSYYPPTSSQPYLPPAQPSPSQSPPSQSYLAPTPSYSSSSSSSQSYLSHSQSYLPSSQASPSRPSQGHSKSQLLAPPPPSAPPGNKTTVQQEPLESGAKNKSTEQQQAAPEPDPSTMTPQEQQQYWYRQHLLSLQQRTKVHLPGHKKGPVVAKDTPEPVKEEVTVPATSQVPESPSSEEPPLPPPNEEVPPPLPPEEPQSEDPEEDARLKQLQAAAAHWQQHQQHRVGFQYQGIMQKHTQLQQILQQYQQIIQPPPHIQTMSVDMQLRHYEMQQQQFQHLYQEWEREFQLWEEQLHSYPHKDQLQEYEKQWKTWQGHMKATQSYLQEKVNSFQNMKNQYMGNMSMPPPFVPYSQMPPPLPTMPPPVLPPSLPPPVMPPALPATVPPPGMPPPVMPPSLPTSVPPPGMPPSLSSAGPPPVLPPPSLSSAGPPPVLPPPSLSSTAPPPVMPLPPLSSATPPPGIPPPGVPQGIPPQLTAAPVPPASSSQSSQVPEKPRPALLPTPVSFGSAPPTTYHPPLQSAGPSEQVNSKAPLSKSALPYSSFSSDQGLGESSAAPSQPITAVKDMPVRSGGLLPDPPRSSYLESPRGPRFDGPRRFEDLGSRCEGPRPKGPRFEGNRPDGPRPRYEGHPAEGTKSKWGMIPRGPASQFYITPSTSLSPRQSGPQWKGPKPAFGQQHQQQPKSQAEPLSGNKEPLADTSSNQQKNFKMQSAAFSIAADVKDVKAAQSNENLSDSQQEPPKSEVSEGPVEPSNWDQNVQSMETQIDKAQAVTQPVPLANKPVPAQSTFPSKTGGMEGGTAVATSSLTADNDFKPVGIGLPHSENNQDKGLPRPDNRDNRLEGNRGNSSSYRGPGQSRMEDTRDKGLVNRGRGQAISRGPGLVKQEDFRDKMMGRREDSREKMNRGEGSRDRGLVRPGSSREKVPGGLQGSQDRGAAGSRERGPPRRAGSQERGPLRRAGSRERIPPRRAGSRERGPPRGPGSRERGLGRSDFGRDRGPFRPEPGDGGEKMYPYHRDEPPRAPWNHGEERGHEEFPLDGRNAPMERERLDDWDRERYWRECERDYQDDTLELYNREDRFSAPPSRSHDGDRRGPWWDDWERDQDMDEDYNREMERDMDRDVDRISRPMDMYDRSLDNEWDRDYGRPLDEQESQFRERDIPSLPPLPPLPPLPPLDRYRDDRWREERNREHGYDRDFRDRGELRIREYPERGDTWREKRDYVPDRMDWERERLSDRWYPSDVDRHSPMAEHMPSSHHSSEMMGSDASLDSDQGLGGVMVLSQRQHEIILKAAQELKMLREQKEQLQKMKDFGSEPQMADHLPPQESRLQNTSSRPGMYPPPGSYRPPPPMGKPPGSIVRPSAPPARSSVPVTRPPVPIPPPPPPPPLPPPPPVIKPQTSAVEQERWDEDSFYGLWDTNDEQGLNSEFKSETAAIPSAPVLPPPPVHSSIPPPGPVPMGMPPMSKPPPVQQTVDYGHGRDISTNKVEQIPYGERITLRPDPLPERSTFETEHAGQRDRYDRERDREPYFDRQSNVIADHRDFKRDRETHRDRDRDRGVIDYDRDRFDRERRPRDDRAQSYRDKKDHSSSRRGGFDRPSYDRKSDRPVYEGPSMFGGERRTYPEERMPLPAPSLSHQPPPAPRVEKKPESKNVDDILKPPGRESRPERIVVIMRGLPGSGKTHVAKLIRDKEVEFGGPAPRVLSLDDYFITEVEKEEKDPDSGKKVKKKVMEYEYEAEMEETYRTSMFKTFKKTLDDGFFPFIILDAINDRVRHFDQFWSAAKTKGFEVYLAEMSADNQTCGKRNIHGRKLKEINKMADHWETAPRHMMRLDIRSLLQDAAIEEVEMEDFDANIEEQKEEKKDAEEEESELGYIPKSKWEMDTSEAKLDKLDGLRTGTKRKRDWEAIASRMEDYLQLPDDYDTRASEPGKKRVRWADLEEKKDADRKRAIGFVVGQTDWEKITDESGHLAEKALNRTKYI
# UniProt Q96K21: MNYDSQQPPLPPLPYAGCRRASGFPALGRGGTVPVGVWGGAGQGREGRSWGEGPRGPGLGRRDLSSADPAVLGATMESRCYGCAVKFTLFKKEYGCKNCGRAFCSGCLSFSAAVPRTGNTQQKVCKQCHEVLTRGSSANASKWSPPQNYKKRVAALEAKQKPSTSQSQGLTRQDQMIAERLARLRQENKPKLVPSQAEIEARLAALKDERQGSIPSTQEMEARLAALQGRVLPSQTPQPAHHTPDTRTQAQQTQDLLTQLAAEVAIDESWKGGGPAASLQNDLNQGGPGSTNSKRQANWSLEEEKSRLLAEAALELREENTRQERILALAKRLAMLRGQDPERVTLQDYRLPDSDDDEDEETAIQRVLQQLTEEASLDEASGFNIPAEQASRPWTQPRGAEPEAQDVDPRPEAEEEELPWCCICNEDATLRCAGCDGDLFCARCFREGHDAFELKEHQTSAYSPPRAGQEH
# UniProt Q9Y5A9: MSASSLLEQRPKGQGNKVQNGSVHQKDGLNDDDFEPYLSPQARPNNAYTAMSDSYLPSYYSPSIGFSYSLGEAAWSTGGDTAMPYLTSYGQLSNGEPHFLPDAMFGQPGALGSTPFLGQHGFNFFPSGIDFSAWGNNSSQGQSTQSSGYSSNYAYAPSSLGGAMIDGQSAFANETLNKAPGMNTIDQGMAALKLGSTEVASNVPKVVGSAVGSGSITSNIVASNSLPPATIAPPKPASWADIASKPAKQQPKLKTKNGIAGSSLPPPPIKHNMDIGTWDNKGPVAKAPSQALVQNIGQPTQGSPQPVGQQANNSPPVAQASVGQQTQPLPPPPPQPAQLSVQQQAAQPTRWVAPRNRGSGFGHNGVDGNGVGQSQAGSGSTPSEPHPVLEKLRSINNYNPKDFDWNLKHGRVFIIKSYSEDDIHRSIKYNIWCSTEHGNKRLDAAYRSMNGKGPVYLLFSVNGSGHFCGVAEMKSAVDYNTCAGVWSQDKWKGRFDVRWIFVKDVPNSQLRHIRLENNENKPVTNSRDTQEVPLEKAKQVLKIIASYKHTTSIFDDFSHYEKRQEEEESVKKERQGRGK
# The list shows a part of the results.
# Compound: Cc1sc2c(c1C)C(c1ccc(Cl)cc1)=N[C@@H](CC(=O)OC(C)(C)C)c1nnc(C)n1-2
# Experiment: log2 fold change, soluble protein after heating vs DMSO (PISA); higher = thermal stabilisation; K562 lysate, 10 uM; active = over 0.2 and 3.5 SD of the protein, either way, in both replicates (recomputed)
# In short: (§1)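 The values are log-two fold changes in thermal stability compared with solvent controls and come from duplicates. They were obtained by TMTpro 16plex LC-MS/MS, with channel sums equalised, on the supernatant after 21,000xg for 90 min. That supernatant came from crude K562 extract at 1 mg/mL protein treated with 10 μM compound for 30 min, heated for 3 min across 48°C-58°C, pooled and brought to 0.5% NP-40 at 4°C.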
row,Target,log2 fold change
1,YPEL5 (UniProt P62699),inactive: 0.059
2,YIF1A (UniProt O95070),inactive: -0.005
3,ZC3H11A (UniProt O75152),inactive: 0.023
4,ZFYVE28 (UniProt Q9HCC9),inactive: -0.086
5,XRCC1 (UniProt P18887),inactive: 0.029
6,ZFPM2 (UniProt Q8WW38),inactive: 0.062
7,ZBTB7B isoform 2 (UniProt O15156),inactive: -0.011
8,XRCC5 (UniProt P13010),inactive: -0.002
9,ZBTB10 (UniProt Q96DT7),inactive: -0.091
10,ZFP91 (UniProt Q96JP5),inactive: -0.018
11,ZDHHC3 isoform 2 (UniProt Q9NYG2),inactive: -0.025
12,XPO5 (UniProt Q9HAV4),inactive: -0.021
13,YLPM1 (UniProt P49750),inactive: 0.005
14,ZFAND5 (UniProt O76080),inactive: -0.027
15,YBX3 (UniProt P16989),inactive: -0.034
16,ZC3H15 (UniProt Q8WU90),inactive: 0.021
17,ZFYVE19 (UniProt Q96K21),inactive: -0.032
18,YWHAH (UniProt Q04917),inactive: 0.022
19,ZBTB21 (UniProt Q9ULJ3),inactive: 0.062

row,Target,log2 fold change
1,XPNPEP3 (UniProt Q9NQH7),inactive: 0
2,YARS2 (UniProt Q9Y2Z4),inactive: -0.016
3,ZC3H13 (UniProt Q5T200),inactive: -0.061
4,ZC3HAV1 (UniProt Q7Z2W4),inactive: -0.01
5,XPNPEP1 isoform 3 (UniProt Q9NQW7),inactive: 0.044
6,XRCC3 (UniProt O43542),inactive: 0.013
7,ZFAND6 (UniProt Q6FIF0),inactive: -0.068
8,ZBTB3 (UniProt Q9H5J0),inactive: -0.072
9,ZGPAT (UniProt Q8N5A5),inactive: 0.091
10,ZC3H8 (UniProt Q8N5P1),inactive: -0.081
11,ZCCHC8 (UniProt Q6NZY4),inactive: -0.001
12,ZC3H4 (UniProt Q9UPT8),inactive: 0.057
13,YTHDF2 (UniProt Q9Y5A9),inactive: 0.014
14,ZFYVE16 (UniProt Q7Z3T8),inactive: -0.006
15,YIPF5 isoform 3 (UniProt Q969M3),inactive: 0.001
16,YTHDF3 (UniProt Q7Z739),inactive: -0.01
17,XPR1 (UniProt Q9UBH6),inactive: -0.004
18,YIPF4 (UniProt Q9BSR8),inactive: -0.075
19,ZBTB17 isoform 2 (UniProt Q13105),inactive: -0.036

# Compound: c1ccc([C@@H]2C[C@H]2NC2CCNCC2)cc1
# Experiment: as above
# In short: as §1
row,Target,log2 fold change
1,YPEL5 (UniProt P62699),inactive: 0.098
2,YIF1A (UniProt O95070),inactive: 0.209
3,ZC3H11A (UniProt O75152),inactive: 0.063
4,ZFYVE28 (UniProt Q9HCC9),inactive: 0.059
5,XRCC1 (UniProt P18887),inactive: 0.081
6,ZFPM2 (UniProt Q8WW38),inactive: 0.055
7,XRCC5 (UniProt P13010),inactive: 0.071
8,ZBTB10 (UniProt Q96DT7),inactive: 0.084
9,ZFP91 (UniProt Q96JP5),inactive: 0.033
10,ZDHHC3 isoform 2 (UniProt Q9NYG2),inactive: 0.028
11,XPO5 (UniProt Q9HAV4),inactive: 0.032
12,YLPM1 (UniProt P49750),inactive: 0.05
13,ZFAND5 (UniProt O76080),inactive: -0.172
14,YBX3 (UniProt P16989),inactive: -0.02
15,ZC3H15 (UniProt Q8WU90),inactive: -0.048
16,ZFYVE19 (UniProt Q96K21),inactive: -0.183
17,YWHAH (UniProt Q04917),inactive: 0.084
18,ZBTB21 (UniProt Q9ULJ3),inactive: -0.046

row,Target,log2 fold change
1,XPNPEP3 (UniProt Q9NQH7),inactive: 0.011
2,YARS2 (UniProt Q9Y2Z4),inactive: 0.016
3,ZC3H13 (UniProt Q5T200),inactive: 0.136
4,ZC3HAV1 (UniProt Q7Z2W4),inactive: -0.001
5,XPNPEP1 isoform 3 (UniProt Q9NQW7),inactive: -0.006
6,XRCC3 (UniProt O43542),inactive: -0.062
7,ZFAND6 (UniProt Q6FIF0),inactive: -0.158
8,ZBTB3 (UniProt Q9H5J0),inactive: -0.065
9,ZGPAT (UniProt Q8N5A5),inactive: 0.033
10,ZC3H8 (UniProt Q8N5P1),inactive: -0.033
11,ZCCHC8 (UniProt Q6NZY4),inactive: 0.008
12,ZC3H4 (UniProt Q9UPT8),inactive: 0.008
13,YTHDF2 (UniProt Q9Y5A9),inactive: 0.011
14,ZFYVE16 (UniProt Q7Z3T8),inactive: -0.008
15,YIPF5 isoform 3 (UniProt Q969M3),inactive: -0.113
16,YTHDF3 (UniProt Q7Z739),inactive: -0.018
17,XPR1 (UniProt Q9UBH6),inactive: 0.038
18,YIPF4 (UniProt Q9BSR8),inactive: 0.012
